These are yes or no findings as the source states them, for the method shown. In cells and extracts the contact can be indirect. Binding can be weak; no strength is given.
Molecular target: GST-tagged pacsin 2 SH3 domain (human) (UniProt Q9UNF0)
Assay: pull-down; GST–pacsin 2 SH3 or GST beads (10 µl bed) as bait; 170 µl extract of transfected HEK293T cells; 20 mM Tris-HCl pH 7.5, 150 mM NaCl, 10% glycerol, 5 mM EDTA, 2% Triton X-100; 1 h at 4°C; anti-GFP immunoblot; only the target purified

Chains of the proteins cited; added tags and fusions are not shown. Residues count along the entry.
UniProt Q9UNF0, residues 426-486: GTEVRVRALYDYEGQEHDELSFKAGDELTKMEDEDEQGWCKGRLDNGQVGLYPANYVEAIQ

In the case of “GFP-tagged full-length N-cadherin, wild type (from UniProt P19022-1)”, the binding was “binds”.

Source: paper PMC10281519
